No constants are given. Whether binding was seen depends on the method and setting. For some assays here: Binding seen in cells or lysates may run through a third protein. Some binding calls cover weakened binding; strength is not graded here.
Tests used:
HA-raptor^wt (human) = HA-raptor^wt (human) (UniProt Q8N122); assay: co-IP with anti-HA antibody from COS7 lysates, CHAPS lysis (FIG. 13)
[1] = target: phospholipase D2, wild type (PLD2^wt) (Homo sapiens) (UniProt O14939); assay: method not described

Sequences of proteins named here, by UniProt entry; tags and fusion partners are left off. A change or cut given only in a name is not applied to a line headed by its entry.
UniProt O14939: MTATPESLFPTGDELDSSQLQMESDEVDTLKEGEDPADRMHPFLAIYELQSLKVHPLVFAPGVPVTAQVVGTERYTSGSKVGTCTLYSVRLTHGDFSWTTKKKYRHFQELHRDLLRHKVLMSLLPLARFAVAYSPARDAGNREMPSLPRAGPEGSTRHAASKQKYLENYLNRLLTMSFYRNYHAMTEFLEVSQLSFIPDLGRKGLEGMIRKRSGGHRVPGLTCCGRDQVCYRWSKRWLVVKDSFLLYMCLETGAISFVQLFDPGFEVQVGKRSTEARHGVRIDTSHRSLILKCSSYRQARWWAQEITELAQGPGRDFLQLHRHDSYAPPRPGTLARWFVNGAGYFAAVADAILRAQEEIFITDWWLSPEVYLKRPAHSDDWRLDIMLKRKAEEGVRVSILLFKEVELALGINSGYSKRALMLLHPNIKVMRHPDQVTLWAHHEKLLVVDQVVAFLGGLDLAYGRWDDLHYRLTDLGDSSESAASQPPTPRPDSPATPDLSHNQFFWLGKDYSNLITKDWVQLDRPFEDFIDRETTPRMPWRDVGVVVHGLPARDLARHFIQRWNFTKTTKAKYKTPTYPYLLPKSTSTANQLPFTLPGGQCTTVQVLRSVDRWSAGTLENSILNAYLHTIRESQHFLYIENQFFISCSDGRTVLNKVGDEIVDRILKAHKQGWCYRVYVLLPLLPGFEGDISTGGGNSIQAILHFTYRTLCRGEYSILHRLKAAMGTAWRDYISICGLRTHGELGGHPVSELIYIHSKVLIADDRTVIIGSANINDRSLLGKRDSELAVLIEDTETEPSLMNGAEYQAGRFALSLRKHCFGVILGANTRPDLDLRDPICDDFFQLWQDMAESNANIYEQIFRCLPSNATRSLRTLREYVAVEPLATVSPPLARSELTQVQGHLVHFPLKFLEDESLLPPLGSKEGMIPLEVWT

| Substance | binding (HA-raptor^wt (human)) | binding [1] |
| --- | --- | --- |
| myc-S6K1 (from UniProt P23443 1-502) (enzyme) | binds |  |
| Rheb (from UniProt Q15382 1-184) |  | binds |

Reference: patent US20100184636A1
